Values from PubChem BioAssay AID1259254 (NCATS, 2017)

- Screen: 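Genome-wide screen for genes that prevent DNA re-replication in cancer cells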 (primary screen)
- Cells: human HCT116 colorectal cancer cells
- Knock-down reagent: single siRNA against human genes
- Duration: 3 days
- Measurement: 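Nuclei stained with Hoechst and imaged; cell-cycle phase assigned by DNA content; G2 share scaled per plate, non-targeting siRNA 0%, GMNN siRNA 100%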
- Scale: G2 robust z-score and G2 cells, % of GMNN control: higher = more G2 cells, more excess DNA replication; raw share of cells in G2: higher = larger share of cells with G2 DNA content
- Rule for the call: 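Active siRNAs have a G2 robust z of 5 or more median absolute deviations over the median, which in these data means about 38% or higher of GMNN control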
In all, the deposit lists about 59,000 reagents; this is a part drawn at random. Of all reagents, about 1,550 (2.6%) are marked active. 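G2 share is only a proxy for re-replication; each gene was hit by three separate siRNAs, and active genes were retested.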 Raw values vary from plate to plate and are shown uncorrected. Reagents against one gene are numbered here. Reagent sequences are not shown. The record does not give: the amount of reagent.

no.	gene knocked down	reagent	G2 robust z-score	G2 cells, % of GMNN control	raw share of cells in G2 (%)	activity call
1	DENR (density regulated re-initiation and release factor)	1	-0.664	-1.7	4.38	inactive
2	DENR (density regulated re-initiation and release factor)	2	-0.412	0.0659	3.92	inactive
3	DENR (density regulated re-initiation and release factor)	3	2.49	20.5	10.6	inactive
4	GRM5P1 (GRM5 pseudogene 1)	1	-0.851	-3.02	3.54	inactive
5	GRM5P1 (GRM5 pseudogene 1)	2	-0.298	0.868	4.13	inactive
6	GRM5P1 (GRM5 pseudogene 1)	3	-0.691	-1.89	2.77	inactive
7	GMDS (GDP-mannose 4,6-dehydratase)	1	-1.09	-4.72	3.52	inactive
8	GMDS (GDP-mannose 4,6-dehydratase)	2	3.24	25.8	15.1	inactive
9	GMDS (GDP-mannose 4,6-dehydratase)	3	2.14	18	10.1	inactive
10	JSRP1 (junctional sarcoplasmic reticulum protein 1)	1	-1.15	-5.15	1.47	inactive
11	JSRP1 (junctional sarcoplasmic reticulum protein 1)	2	-0.558	-0.961	2.23	inactive
12	JSRP1 (junctional sarcoplasmic reticulum protein 1)	3	-1.01	-4.17	2.6	inactive
13	ZNF826P (zinc finger protein 826, pseudogene)	1	2.55	20.9	12.4	inactive
14	ZNF826P (zinc finger protein 826, pseudogene)	2	-0.947	-3.69	1.81	inactive
15	ZNF826P (zinc finger protein 826, pseudogene)	3	-0.674	-1.77	2.25	inactive
16	SIL1 (SIL1 nucleotide exchange factor)	1	-0.204	1.53	6.28	inactive
17	SIL1 (SIL1 nucleotide exchange factor)	2	0.183	4.26	5.85	inactive
18	SIL1 (SIL1 nucleotide exchange factor)	3	3.44	27.2	14.1	inactive
19	SLC68A1	1	-1.26	-5.9	1.99	inactive
20	SLC68A1	2	0.526	6.67	7.22	inactive
21	SLC68A1	3	1.33	12.3	5.74	inactive
22	ANGPTL4 (angiopoietin like 4)	1	-0.0383	2.7	4.83	inactive
23	ANGPTL4 (angiopoietin like 4)	2	-0.592	-1.2	3.8	inactive
24	ANGPTL4 (angiopoietin like 4)	3	-1.36	-6.58	2.97	inactive
25	LHX4 (LIM homeobox 4)	1	-0.819	-2.8	3.77	inactive
26	LHX4 (LIM homeobox 4)	2	0.0603	3.39	5.76	inactive
27	LHX4 (LIM homeobox 4)	3	2.92	23.5	16.6	inactive
28	ATAD5 (ATPase family AAA domain containing 5)	1	0.524	6.66	7.21	inactive
29	ATAD5 (ATPase family AAA domain containing 5)	2	0.289	5	6.49	inactive
30	ATAD5 (ATPase family AAA domain containing 5)	3	0.603	7.21	4.35	inactive
31	DPP3 (dipeptidyl peptidase 3)	1	-0.413	0.0609	5.58	inactive
32	DPP3 (dipeptidyl peptidase 3)	2	-0.165	1.81	4.58	inactive
33	DPP3 (dipeptidyl peptidase 3)	3	4.75	36.4	17.8	inactive
34	PPP1CC (protein phosphatase 1 catalytic subunit gamma)	1	4.03	31.3	15	inactive
35	PPP1CC (protein phosphatase 1 catalytic subunit gamma)	2	0.626	7.37	6.52	inactive
36	PPP1CC (protein phosphatase 1 catalytic subunit gamma)	3	0.859	9.01	6.21	inactive
37	MTFP1 (mitochondrial fission process 1)	1	-0.584	-1.14	3.2	inactive
38	MTFP1 (mitochondrial fission process 1)	2	-0.793	-2.61	3.17	inactive
39	MTFP1 (mitochondrial fission process 1)	3	-0.722	-2.11	2.49	inactive
40	USP46 (ubiquitin specific peptidase 46)	1	-1.37	-6.67	2.78	inactive
41	USP46 (ubiquitin specific peptidase 46)	2	-0.739	-2.23	3.74	inactive
42	USP46 (ubiquitin specific peptidase 46)	3	-0.242	1.27	4.73	inactive
43	CNPY2 (canopy FGF signaling regulator 2)	1	0.31	5.15	7.66	inactive
44	CNPY2 (canopy FGF signaling regulator 2)	2	-0.107	2.21	4.87	inactive
45	CNPY2 (canopy FGF signaling regulator 2)	3	1.99	17	9.58	inactive
46	FAM185BP (family with sequence similarity 185 member B, pseudogene)	1	-0.664	-1.7	2.54	inactive
47	FAM185BP (family with sequence similarity 185 member B, pseudogene)	2	-0.149	1.92	4.36	inactive
48	FAM185BP (family with sequence similarity 185 member B, pseudogene)	3	0.059	3.38	4.7	inactive
49	TREM2 (triggering receptor expressed on myeloid cells 2)	1	-0.91	-3.44	2.48	inactive
50	TREM2 (triggering receptor expressed on myeloid cells 2)	2	-0.681	-1.82	5.13	inactive
51	TREM2 (triggering receptor expressed on myeloid cells 2)	3	-1.06	-4.51	2.58	inactive

Looked up above.
ANGPTL4 (angiopoietin like 4) #1, G2 cells, % of GMNN control → 2.7
For “raw share of cells in G2 (%)”, LHX4 (LIM homeobox 4) #2 is entered as 5.76
For “G2 cells, % of GMNN control”, ZNF826P (zinc finger protein 826, pseudogene) #2 has -3.69
Result for CNPY2 (canopy FGF signaling regulator 2) #3 under “raw share of cells in G2 (%)”: 9.58
For “raw share of cells in G2 (%)”, SLC68A1 #3 shows 5.74
PPP1CC (protein phosphatase 1 catalytic subunit gamma) #2, G2 cells, % of GMNN control → 7.37

Next entries:
no.	gene knocked down	reagent	G2 robust z-score	G2 cells, % of GMNN control	raw share of cells in G2 (%)	activity call
52	ELANE (elastase, neutrophil expressed)	1	0.793	8.55	7.1	inactive
53	ELANE (elastase, neutrophil expressed)	2	-0.442	-0.14	5.51	inactive
54	ELANE (elastase, neutrophil expressed)	3	1.06	10.4	8.6	inactive
55	GPR12 (G protein-coupled receptor 12)	1	-0.839	-2.94	4.79	inactive
56	GPR12 (G protein-coupled receptor 12)	2	-1.01	-4.14	3.07	inactive
57	GPR12 (G protein-coupled receptor 12)	3	0.324	5.24	4.88	inactive
58	GJB1 (gap junction protein beta 1)	1	1.09	10.7	7.69	inactive
59	GJB1 (gap junction protein beta 1)	2	-0.595	-1.22	4.28	inactive
60	GJB1 (gap junction protein beta 1)	3	4.39	33.8	15.4	inactive
61	SPATA32 (spermatogenesis associated 32)	1	0.672	7.69	7.18	inactive
62	SPATA32 (spermatogenesis associated 32)	2	-0.203	1.54	3.79	inactive
63	SPATA32 (spermatogenesis associated 32)	3	-0.41	0.0805	1.84	inactive
64	ZNF620 (zinc finger protein 620)	1	0.889	9.23	6.26	inactive
65	ZNF620 (zinc finger protein 620)	2	0.583	7.07	5.62	inactive
66	ZNF620 (zinc finger protein 620)	3	-0.277	1.02	3.88	inactive
67	POLR2D (RNA polymerase II subunit D)	1	0.543	6.79	6.15	inactive
68	POLR2D (RNA polymerase II subunit D)	2	3.22	25.7	16.9	inactive
69	POLR2D (RNA polymerase II subunit D)	3	0.84	8.88	6.33	inactive
70	SCNN1D (sodium channel epithelial 1 subunit delta)	1	1.65	14.6	10.6	inactive
71	SCNN1D (sodium channel epithelial 1 subunit delta)	2	1.15	11.1	8.53	inactive
72	SCNN1D (sodium channel epithelial 1 subunit delta)	3	-0.174	1.74	5.06	inactive
73	OR10A3 (olfactory receptor family 10 subfamily A member 3)	1	-0.989	-3.99	2.91	inactive
74	OR10A3 (olfactory receptor family 10 subfamily A member 3)	2	0.329	5.28	6.23	inactive
75	OR10A3 (olfactory receptor family 10 subfamily A member 3)	3	-0.372	0.351	3.42	inactive
76	RNF43 (ring finger protein 43)	1	1.73	15.2	9.03	inactive
77	RNF43 (ring finger protein 43)	2	4.13	32.1	17.8	inactive
78	RNF43 (ring finger protein 43)	3	2.94	23.7	11	inactive
79	OPRK1 (opioid receptor kappa 1)	1	6.24	46.9	22.6	active
80	OPRK1 (opioid receptor kappa 1)	2	-0.683	-1.84	3.88	inactive
81	OPRK1 (opioid receptor kappa 1)	3	0.0716	3.47	4.33	inactive
82	SLC16A10	1	0.0636	3.41	5.77	inactive
83	SLC16A10	2	1.37	12.6	10.4	inactive
84	SLC16A10	3	0.477	6.32	8.61	inactive
85	RNF169 (ring finger protein 169)	1	4.81	36.8	16.9	inactive
86	RNF169 (ring finger protein 169)	2	-0.477	-0.392	3	inactive
87	RNF169 (ring finger protein 169)	3	0.371	5.58	4.97	inactive
